According to article PMC7575537:
No constants are given. Whether binding was seen depends on the method and setting. Binding seen in cells or lysates may run through a third protein. Some results given as binding are weak or reduced against the parent protein; the word gives no strength.

Amino acid sequences for entries named in this document (tags omitted).
UniProt P63158: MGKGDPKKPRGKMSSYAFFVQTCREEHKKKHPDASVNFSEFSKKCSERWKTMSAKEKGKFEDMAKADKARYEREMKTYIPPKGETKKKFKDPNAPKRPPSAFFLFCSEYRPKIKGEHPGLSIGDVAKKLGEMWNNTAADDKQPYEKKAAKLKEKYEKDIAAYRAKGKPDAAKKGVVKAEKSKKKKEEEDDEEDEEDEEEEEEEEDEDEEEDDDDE
UniProt P06537: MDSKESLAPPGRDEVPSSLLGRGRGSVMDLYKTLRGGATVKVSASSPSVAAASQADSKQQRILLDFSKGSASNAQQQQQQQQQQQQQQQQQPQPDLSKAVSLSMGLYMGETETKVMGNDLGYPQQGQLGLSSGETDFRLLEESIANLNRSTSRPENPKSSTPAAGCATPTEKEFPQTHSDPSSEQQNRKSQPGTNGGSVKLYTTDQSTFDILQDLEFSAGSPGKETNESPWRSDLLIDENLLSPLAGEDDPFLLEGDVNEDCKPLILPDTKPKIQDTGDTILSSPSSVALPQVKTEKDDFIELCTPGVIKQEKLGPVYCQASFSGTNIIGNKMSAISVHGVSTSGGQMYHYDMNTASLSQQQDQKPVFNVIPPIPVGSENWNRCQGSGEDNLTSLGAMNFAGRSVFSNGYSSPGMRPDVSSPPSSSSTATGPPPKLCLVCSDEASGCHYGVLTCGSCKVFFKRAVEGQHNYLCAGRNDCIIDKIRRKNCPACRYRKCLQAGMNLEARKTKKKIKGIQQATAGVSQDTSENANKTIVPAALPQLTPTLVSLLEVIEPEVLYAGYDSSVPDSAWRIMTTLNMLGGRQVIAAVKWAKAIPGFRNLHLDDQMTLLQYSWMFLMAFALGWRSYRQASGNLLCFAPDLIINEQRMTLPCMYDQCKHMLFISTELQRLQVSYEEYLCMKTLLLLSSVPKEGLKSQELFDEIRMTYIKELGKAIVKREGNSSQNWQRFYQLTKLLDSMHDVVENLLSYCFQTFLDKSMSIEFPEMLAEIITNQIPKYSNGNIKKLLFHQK

Columns and labels:
[1] = biological target: High-mobility group box 1 (mouse (endogenous in heart tissue)) (UniProt P63158); assay: co-IP; WT mouse heart tissue lysates (neonatal, 2-week-old and 12-week-old); 1 mg precleared lysate, overnight at 4 °C with anti-HMGB1 or anti-GR antibody coupled to Protein A/G PLUS-Agarose; normal mouse or rabbit IgG as control; western blot
[2] = biological target: glucocorticoid receptor (mouse (endogenous in heart tissue)) (UniProt P06537); assay: as above

Row | binding [1] | binding [2] | Substance
1 | binds | – | glucocorticoid receptor (from UniProt P06537 1-792)
2 | – | binds | High-mobility group box 1 (from UniProt P63158 1-215)
